According to the supplement of paper PMC10849652:
The list shows a part of the results.

Protein sequences, listed by entry. Tags and fused reporters are not part of them. Lines headed by an entry give the natural chain unless they say otherwise; changes in a name come on top.
UniProt Q14849, whole entry, looked up: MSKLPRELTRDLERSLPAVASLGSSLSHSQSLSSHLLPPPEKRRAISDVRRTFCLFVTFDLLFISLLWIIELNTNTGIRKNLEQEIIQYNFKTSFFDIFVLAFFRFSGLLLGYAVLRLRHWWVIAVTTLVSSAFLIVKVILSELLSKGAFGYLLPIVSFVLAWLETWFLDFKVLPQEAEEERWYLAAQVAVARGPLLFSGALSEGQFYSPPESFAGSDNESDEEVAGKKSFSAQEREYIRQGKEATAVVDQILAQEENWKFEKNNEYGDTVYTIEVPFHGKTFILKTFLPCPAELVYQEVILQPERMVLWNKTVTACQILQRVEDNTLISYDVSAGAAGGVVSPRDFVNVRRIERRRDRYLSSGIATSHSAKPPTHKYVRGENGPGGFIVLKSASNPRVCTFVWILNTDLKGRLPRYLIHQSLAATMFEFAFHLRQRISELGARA
UniProt Q11206: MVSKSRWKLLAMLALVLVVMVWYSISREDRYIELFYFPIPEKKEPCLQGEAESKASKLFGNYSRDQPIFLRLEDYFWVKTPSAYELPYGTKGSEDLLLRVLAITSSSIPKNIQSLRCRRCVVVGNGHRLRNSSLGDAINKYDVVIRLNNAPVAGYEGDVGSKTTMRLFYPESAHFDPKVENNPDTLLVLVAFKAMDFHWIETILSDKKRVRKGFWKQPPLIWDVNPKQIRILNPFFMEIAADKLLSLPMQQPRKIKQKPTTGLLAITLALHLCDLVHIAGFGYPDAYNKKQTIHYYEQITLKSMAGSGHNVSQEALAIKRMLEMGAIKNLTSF
UniProt Q8TCT8: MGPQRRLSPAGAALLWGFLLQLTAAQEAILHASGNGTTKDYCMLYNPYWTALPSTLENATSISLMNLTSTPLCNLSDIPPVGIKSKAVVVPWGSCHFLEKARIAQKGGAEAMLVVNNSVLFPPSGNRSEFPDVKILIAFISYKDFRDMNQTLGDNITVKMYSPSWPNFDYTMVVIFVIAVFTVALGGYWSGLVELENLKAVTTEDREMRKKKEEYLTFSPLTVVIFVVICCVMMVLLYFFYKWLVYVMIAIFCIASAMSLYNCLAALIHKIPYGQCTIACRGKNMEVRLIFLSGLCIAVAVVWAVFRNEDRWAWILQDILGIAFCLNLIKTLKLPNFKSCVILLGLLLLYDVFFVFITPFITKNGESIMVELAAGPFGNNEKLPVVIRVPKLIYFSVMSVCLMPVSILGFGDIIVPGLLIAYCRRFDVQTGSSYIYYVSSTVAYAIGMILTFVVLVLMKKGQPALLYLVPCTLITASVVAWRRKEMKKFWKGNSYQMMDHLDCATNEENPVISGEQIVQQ
UniProt Q9Y657, whole entry, looked up: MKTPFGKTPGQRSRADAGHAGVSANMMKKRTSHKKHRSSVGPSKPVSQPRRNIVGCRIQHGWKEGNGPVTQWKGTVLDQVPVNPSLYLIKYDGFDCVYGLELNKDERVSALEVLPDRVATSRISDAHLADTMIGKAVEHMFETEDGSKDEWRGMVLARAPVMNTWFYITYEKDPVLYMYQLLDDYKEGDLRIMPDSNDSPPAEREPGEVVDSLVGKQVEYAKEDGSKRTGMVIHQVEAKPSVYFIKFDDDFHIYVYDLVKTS
UniProt O95793: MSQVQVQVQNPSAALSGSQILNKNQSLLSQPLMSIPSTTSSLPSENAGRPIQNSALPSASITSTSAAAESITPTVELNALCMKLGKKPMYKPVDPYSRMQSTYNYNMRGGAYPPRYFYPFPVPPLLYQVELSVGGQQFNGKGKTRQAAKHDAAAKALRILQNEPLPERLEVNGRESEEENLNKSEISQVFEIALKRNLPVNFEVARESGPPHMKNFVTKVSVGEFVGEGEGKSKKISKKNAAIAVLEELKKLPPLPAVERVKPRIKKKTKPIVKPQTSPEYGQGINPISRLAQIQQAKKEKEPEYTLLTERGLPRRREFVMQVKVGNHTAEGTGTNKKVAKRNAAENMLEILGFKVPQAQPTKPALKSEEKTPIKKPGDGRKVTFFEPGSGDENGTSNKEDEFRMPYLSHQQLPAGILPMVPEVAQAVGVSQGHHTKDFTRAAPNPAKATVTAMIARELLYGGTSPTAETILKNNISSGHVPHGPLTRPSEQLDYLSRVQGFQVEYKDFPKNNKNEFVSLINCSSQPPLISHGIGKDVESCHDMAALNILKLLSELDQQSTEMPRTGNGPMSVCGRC
UniProt Q8WXA9: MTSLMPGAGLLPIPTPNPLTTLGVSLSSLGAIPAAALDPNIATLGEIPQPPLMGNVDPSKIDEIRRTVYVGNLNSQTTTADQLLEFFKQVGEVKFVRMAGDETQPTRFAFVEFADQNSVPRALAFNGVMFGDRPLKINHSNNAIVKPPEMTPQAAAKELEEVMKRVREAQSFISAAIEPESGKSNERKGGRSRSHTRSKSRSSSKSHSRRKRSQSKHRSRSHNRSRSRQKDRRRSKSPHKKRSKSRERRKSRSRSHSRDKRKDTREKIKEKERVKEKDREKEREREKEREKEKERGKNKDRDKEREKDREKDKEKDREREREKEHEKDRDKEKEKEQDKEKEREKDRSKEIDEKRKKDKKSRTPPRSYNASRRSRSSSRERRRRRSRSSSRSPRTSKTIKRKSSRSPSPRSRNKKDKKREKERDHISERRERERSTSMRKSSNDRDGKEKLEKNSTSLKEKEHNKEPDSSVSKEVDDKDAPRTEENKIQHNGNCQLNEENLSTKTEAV
UniProt P08240: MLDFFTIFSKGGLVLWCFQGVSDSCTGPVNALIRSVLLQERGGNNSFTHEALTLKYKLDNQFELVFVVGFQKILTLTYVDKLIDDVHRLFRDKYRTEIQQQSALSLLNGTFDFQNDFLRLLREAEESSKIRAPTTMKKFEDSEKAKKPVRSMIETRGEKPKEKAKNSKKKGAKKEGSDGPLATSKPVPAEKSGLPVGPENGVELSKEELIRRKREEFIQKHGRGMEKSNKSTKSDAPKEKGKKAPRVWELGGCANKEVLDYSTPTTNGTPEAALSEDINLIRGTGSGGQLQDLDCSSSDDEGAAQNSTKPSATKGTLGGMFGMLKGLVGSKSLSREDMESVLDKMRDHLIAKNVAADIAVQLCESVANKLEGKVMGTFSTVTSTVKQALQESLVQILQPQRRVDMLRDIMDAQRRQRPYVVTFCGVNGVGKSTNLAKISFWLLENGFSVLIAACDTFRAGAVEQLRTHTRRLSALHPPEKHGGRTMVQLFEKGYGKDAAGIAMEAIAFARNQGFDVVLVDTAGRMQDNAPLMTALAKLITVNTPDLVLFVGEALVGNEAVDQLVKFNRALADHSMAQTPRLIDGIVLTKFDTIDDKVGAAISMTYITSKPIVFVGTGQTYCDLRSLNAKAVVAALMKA
UniProt Q9H2V7: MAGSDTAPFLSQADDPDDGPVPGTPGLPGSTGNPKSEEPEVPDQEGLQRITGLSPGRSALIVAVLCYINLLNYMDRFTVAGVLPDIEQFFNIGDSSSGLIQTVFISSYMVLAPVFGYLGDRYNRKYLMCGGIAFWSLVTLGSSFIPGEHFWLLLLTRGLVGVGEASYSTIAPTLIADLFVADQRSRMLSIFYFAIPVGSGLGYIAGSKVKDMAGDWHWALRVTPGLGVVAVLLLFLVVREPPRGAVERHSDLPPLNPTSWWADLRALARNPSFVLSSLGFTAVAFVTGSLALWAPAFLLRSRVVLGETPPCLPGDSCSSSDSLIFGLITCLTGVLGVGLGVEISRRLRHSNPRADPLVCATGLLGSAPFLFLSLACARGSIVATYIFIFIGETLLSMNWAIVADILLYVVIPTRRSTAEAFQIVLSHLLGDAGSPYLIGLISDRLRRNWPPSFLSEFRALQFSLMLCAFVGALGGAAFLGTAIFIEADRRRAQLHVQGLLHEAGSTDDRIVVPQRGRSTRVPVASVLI
UniProt O15020, whole entry, looked up: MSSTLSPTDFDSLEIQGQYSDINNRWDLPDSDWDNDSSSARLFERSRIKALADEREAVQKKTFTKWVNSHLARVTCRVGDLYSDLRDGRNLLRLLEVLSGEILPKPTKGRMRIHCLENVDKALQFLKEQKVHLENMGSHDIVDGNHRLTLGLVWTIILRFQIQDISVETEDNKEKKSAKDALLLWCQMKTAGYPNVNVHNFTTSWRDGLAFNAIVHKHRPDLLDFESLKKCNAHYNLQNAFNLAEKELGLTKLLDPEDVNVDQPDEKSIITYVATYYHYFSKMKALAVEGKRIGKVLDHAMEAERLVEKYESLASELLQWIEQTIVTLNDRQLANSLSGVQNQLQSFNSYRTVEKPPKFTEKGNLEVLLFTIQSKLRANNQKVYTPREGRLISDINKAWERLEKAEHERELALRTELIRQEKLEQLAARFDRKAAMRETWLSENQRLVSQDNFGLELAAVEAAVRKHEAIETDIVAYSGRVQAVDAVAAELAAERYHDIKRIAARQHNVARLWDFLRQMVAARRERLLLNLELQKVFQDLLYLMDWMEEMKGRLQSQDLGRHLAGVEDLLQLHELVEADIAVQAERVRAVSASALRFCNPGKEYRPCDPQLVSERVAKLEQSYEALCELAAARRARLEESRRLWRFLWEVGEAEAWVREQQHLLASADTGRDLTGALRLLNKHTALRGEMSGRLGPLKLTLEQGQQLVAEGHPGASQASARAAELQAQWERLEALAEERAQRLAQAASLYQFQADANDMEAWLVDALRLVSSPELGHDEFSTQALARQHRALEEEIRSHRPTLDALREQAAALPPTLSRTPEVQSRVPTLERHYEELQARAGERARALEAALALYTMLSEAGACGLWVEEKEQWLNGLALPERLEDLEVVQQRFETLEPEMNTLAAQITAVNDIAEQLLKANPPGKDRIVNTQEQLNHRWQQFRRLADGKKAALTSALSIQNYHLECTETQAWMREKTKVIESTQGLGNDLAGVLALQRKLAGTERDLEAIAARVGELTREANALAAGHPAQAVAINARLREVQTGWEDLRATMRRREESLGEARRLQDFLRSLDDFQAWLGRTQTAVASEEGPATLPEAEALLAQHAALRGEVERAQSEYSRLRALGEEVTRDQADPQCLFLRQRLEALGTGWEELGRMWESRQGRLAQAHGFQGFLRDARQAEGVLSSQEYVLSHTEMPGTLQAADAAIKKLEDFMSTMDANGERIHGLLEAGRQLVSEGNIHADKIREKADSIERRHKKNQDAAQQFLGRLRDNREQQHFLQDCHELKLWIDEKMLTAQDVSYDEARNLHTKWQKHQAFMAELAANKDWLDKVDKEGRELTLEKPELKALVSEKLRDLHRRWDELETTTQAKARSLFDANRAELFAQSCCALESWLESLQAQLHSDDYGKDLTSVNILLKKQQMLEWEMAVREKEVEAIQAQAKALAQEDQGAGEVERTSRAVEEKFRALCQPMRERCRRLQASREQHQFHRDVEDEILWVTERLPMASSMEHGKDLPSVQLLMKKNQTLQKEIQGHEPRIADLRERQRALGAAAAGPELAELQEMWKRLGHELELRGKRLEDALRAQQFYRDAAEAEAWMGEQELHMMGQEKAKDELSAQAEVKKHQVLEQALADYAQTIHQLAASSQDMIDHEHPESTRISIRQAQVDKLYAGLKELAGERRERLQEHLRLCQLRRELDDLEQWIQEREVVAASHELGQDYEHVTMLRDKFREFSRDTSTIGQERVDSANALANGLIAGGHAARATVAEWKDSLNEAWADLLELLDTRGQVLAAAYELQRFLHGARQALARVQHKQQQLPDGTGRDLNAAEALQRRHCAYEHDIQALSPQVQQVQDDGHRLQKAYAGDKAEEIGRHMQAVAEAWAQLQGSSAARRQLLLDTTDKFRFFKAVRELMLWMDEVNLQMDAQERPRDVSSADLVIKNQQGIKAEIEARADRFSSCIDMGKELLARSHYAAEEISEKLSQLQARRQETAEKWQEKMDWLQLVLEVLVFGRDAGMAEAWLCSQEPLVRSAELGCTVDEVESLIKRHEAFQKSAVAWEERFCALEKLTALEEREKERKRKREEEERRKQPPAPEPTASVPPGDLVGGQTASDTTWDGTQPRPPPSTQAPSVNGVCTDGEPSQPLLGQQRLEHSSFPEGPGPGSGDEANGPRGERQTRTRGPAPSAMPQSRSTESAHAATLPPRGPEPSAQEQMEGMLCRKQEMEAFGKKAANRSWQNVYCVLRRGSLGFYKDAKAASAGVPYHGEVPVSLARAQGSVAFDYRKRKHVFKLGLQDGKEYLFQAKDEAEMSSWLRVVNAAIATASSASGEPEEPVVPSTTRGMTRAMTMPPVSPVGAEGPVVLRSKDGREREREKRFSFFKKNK
UniProt Q04837: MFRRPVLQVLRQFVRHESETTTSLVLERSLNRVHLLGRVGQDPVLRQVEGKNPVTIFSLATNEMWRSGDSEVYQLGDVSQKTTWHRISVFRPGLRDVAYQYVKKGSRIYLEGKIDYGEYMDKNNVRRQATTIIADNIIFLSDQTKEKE
UniProt O60225: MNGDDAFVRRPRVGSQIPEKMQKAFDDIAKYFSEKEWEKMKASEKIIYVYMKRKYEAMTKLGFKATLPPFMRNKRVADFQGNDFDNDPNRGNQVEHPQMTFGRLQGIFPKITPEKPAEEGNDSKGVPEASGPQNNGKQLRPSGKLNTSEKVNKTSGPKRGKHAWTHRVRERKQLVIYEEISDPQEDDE

Tests used:
Assay in all cases: log2 fold change, soluble protein after heating vs DMSO (PISA); higher = thermal stabilisation; K562 lysate, 10 uM; active = over 0.2 and 3.5 SD of the protein, either way, in both replicates (recomputed)
[1] = compound: NCC(=O)Nc1ccc(-n2nc(C(F)(F)F)cc2-c2ccc3c(ccc4ccccc43)c2)cc1
How it was run: (§1)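 Log-two fold change in thermal stability relative to solvent controls is reported from duplicates. For each sample, crude K562 extract from dounce-homogenised pellets in PBS pH 7.4 with 1 mM MgCl2, at 1 mg/mL protein, was treated with 10 μM compound for 30 min. Aliquots heated for 3 min across 48°C-58°C were pooled, brought to 0.5% NP-40 at 4°C and cleared at 21,000xg for 90 min. The supernatant was quantified by TMTpro 16plex LC-MS/MS with channel sums equalised.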

[2] = compound: O=C(CCCCCCC(=O)Nc1ccccc1)NO [vorinostat]
How it was run: as §1

[3] = compound: O=C(O)c1ccc2c(c1)nc(Nc1cccc(Cl)c1)c1ccncc12 [silmitasertib]
How it was run: as §1

[4] = compound: O=C1NC(=O)C(c2cnc3ccccn23)=C1c1cn2c3c(cc(F)cc13)CN(C(=O)N1CCCCC1)CC2
How it was run: as §1

[5] = compound: c1cn2cc(-c3ccc4cn[nH]c4c3)nc(Nc3ccc(N4CCOCC4)cc3)c2n1 [entospletinib]
How it was run: as §1

| Target | log2 fold change [1] | log2 fold change [2] | log2 fold change [3] | log2 fold change [4] | log2 fold change [5] |
| --- | --- | --- | --- | --- | --- |
| STIL isoform 2 (UniProt Q15468) | inactive: -0.002 | inactive: -0.168 | inactive: 0.015 | inactive: 0.001 | inactive: 0.014 |
| STARD10 (UniProt Q9Y365) | inactive: -0.037 | inactive: 0.148 | inactive: -0.003 | inactive: -0.032 | inactive: 0.036 |
| SPTAN1 (UniProt Q13813) | inactive: 0.001 | inactive: 0.087 | inactive: 0.001 | inactive: -0.011 | inactive: 0.01 |
| SPTA1 (UniProt P02549) | inactive: -0.016 | inactive: 0.052 | inactive: 0.052 | inactive: 0.001 | inactive: 0.019 |
| SRPK2 isoform 2 (UniProt P78362) | inactive: -0.007 | inactive: -0.028 | inactive: 0.131 | inactive: -0.008 | inactive: 0.002 |
| STARD3 isoform 3 (UniProt Q14849) | inactive: 0.022 | inactive: 0.065 | inactive: 0.047 | inactive: 0.03 | inactive: -0.025 |
| ST3GAL4 isoform 4 (UniProt Q11206) | inactive: 0.026 | inactive: 0.088 | inactive: 0.046 | inactive: 0.026 | inactive: 0.043 |
| SPPL2A (UniProt Q8TCT8) | inactive: 0.407 | inactive: -0.106 | inactive: -0.069 | inactive: 0.047 | inactive: 0.141 |
| SRF (UniProt P11831) | inactive: -0.008 | inactive: -0.008 | inactive: -0.054 | inactive: 0.028 | inactive: -0.072 |
| SPCS3 (UniProt P61009) | inactive: -0.039 | inactive: 0.116 | inactive: 0.022 | inactive: -0.088 | inactive: 0.029 |
| SPIN1 (UniProt Q9Y657) | inactive: -0.021 | inactive: 0.013 | inactive: -0.013 | inactive: 0.025 | inactive: -0.076 |
| SRD5A3 (UniProt Q9H8P0) | inactive: -0.177 | inactive: 0.165 | inactive: 0.179 | inactive: -0.205 | inactive: -0.002 |
| STAU1 (UniProt O95793) | inactive: 0.045 | inactive: -0.035 | inactive: 0.017 | inactive: -0.009 | inactive: 0.009 |
| SRI (UniProt P30626) | inactive: -0.091 | inactive: 0.071 | inactive: 0.013 | inactive: -0.014 | inactive: -0.041 |
| SQLE (UniProt Q14534) | inactive: 0.01 | inactive: 0.103 | inactive: -0.056 | inactive: -0.042 | inactive: 0.029 |
| SPINDOC (UniProt Q9BUA3) | inactive: 0.082 | inactive: 0.041 | inactive: 0.003 | inactive: -0.132 | inactive: -0.104 |
| SPR (UniProt P35270) | inactive: -0.037 | inactive: -0.199 | inactive: 0.308 | inactive: 0.219 | inactive: 0.003 |
| SRCAP (UniProt Q6ZRS2) | inactive: -0.013 | inactive: -0.173 | inactive: 0.037 | inactive: -0.024 | inactive: -0.015 |
| SSR3 isoform 2 (UniProt Q9UNL2) | inactive: -0.252 | inactive: 0.078 | inactive: 0.04 | inactive: -0.062 | inactive: 0.013 |
| STAT2 (UniProt P52630) | inactive: -0.018 | active: -0.254 | inactive: 0.063 | inactive: -0.017 | inactive: 0.011 |
| SRP14 (UniProt P37108) | inactive: 0.009 | inactive: 0.081 | inactive: -0.015 | inactive: -0.008 | inactive: 0.032 |
| SSB (UniProt P05455) | inactive: 0.027 | inactive: 0.081 | inactive: 0.01 | inactive: 0.032 | inactive: 0.005 |
| SRFBP1 (UniProt Q8NEF9) | inactive: -0.014 | inactive: 0.081 | inactive: -0.067 | inactive: 0.014 | inactive: -0.012 |
| SRSF10 (UniProt O75494) | inactive: 0.103 | inactive: 0.155 | inactive: -0.049 | inactive: 0.004 | inactive: -0.038 |
| ST6GAL1 (UniProt P15907) | inactive: 0.013 | inactive: 0.121 | inactive: 0.048 | inactive: -0.051 | inactive: -0.015 |
| STAT6 (UniProt P42226) | inactive: -0.042 | inactive: -0.142 | inactive: -0.001 | inactive: -0.028 | inactive: 0.003 |
| SREK1 isoform 2 (UniProt Q8WXA9) | inactive: 0.064 | inactive: 0.099 | inactive: -0.047 | inactive: 0.029 | inactive: 0.005 |

| Target | log2 fold change [1] | log2 fold change [2] | log2 fold change [3] | log2 fold change [4] | log2 fold change [5] |
| --- | --- | --- | --- | --- | --- |
| SSRP1 (UniProt Q08945) | inactive: 0.014 | inactive: 0.063 | inactive: 0.014 | inactive: -0.046 | inactive: 0.002 |
| STAM (UniProt A6NMU3) | inactive: 0.015 | inactive: -0.073 | inactive: -0.048 | inactive: 0.028 | inactive: 0 |
| SPTLC2 (UniProt O15270) | inactive: -0.004 | inactive: 0.158 | inactive: -0.026 | inactive: 0.002 | inactive: 0.007 |
| SPG7 (UniProt Q9UQ90) | inactive: -0.072 | inactive: -0.066 | inactive: 0.109 | inactive: -0.079 | inactive: -0.005 |
| SRXN1 (UniProt Q9BYN0) | inactive: -0.061 | inactive: -0.11 | inactive: 0.028 | inactive: -0.026 | inactive: 0.014 |
| STAM (UniProt Q92783) | inactive: -0.002 | inactive: 0.12 | inactive: -0.027 | inactive: -0.029 | inactive: 0.003 |
| SSX1 (UniProt Q16384) | inactive: 0.078 | inactive: -0.379 | inactive: -0.021 | inactive: 0.065 | inactive: -0.013 |
| SRPRA (UniProt P08240) | inactive: -0.007 | inactive: -0.217 | inactive: -0.022 | inactive: -0.047 | inactive: -0.04 |
| SRP72 (UniProt O76094) | inactive: 0.008 | inactive: -0.231 | inactive: 0.001 | inactive: 0.005 | inactive: 0.04 |
| SPRYD7 (UniProt Q5W111) | inactive: -0.018 | inactive: 0.062 | inactive: -0.024 | inactive: -0.029 | inactive: -0.025 |
| SRSF7 (UniProt Q16629) | inactive: 0.02 | inactive: 0.134 | inactive: -0.052 | inactive: -0.014 | inactive: -0.013 |
| SSX2 (UniProt Q16385) | inactive: 0.03 | inactive: -0.017 | inactive: -0.004 | inactive: -0.031 | inactive: 0.01 |
| STAT1 (UniProt P42224) | inactive: -0.012 | inactive: -0.186 | inactive: 0.022 | inactive: 0.02 | inactive: 0.045 |
| SPCS2 (UniProt Q15005) | inactive: -0.024 | inactive: 0.169 | inactive: 0.014 | inactive: -0.019 | inactive: 0.013 |
| SSBP3 (UniProt Q9BWW4) | inactive: -0.085 | inactive: 0.061 | inactive: -0.005 | inactive: 0.088 | inactive: 0.009 |
| SPHK1 isoform 2 (UniProt Q9NYA1) | inactive: 0.091 | inactive: -0.408 | inactive: 0.089 | inactive: -0.167 | inactive: 0.032 |
| SSR1 (UniProt P43307) | inactive: -0.051 | inactive: 0.034 | inactive: 0.038 | inactive: -0.015 | inactive: -0.003 |
| SPATA5L1 (UniProt Q9BVQ7) | inactive: 0.029 | active: -0.408 | inactive: 0.138 | inactive: 0.035 | inactive: -0.021 |
| SPNS1 (UniProt Q9H2V7) | inactive: 0.086 | inactive: -0.022 | inactive: 0.033 | inactive: -0.025 | inactive: -0.045 |
| STAU2 (UniProt Q9NUL3) | inactive: 0.11 | inactive: -0.003 | inactive: -0.028 | inactive: -0.078 | inactive: -0.033 |
| SPN (UniProt P16150) | inactive: -0.004 | inactive: 0.1 | inactive: 0.003 | inactive: -0.013 | inactive: -0.023 |
| SQSTM1 (UniProt Q13501) | inactive: 0.05 | inactive: -0.061 | inactive: -0.028 | inactive: 0.012 | inactive: -0.024 |
| SPTBN2 (UniProt O15020) | inactive: -0.037 | inactive: -0.156 | inactive: -0.02 | inactive: -0.016 | inactive: 0.012 |
| SSBP1 (UniProt Q04837) | inactive: 0.025 | inactive: 0.146 | inactive: -0.023 | inactive: -0.013 | inactive: 0.014 |
| SPCS1, A0A5F9YFS9 | inactive: 0.044 | inactive: 0.12 | inactive: -0.079 | inactive: 0.034 | inactive: 0.014 |
| SSX5 isoform 2 (UniProt O60225) | inactive: -0.111 | inactive: -0.059 | inactive: 0.091 | – | inactive: -0.035 |

Eleven entries from above, in CSV form:
Target,log2 fold change [1],log2 fold change [2],log2 fold change [3],log2 fold change [4],log2 fold change [5]
STAM (UniProt A6NMU3),inactive: 0.015,inactive: -0.073,inactive: -0.048,inactive: 0.028,inactive: 0
STAM (UniProt Q92783),inactive: -0.002,inactive: 0.12,inactive: -0.027,inactive: -0.029,inactive: 0.003
SSX1 (UniProt Q16384),inactive: 0.078,inactive: -0.379,inactive: -0.021,inactive: 0.065,inactive: -0.013
SRSF7 (UniProt Q16629),inactive: 0.02,inactive: 0.134,inactive: -0.052,inactive: -0.014,inactive: -0.013
SSX2 (UniProt Q16385),inactive: 0.03,inactive: -0.017,inactive: -0.004,inactive: -0.031,inactive: 0.01
SPCS2 (UniProt Q15005),inactive: -0.024,inactive: 0.169,inactive: 0.014,inactive: -0.019,inactive: 0.013
STAU2 (UniProt Q9NUL3),inactive: 0.11,inactive: -0.003,inactive: -0.028,inactive: -0.078,inactive: -0.033
SPN (UniProt P16150),inactive: -0.004,inactive: 0.1,inactive: 0.003,inactive: -0.013,inactive: -0.023
SSBP1 (UniProt Q04837),inactive: 0.025,inactive: 0.146,inactive: -0.023,inactive: -0.013,inactive: 0.014
"SPCS1, A0A5F9YFS9",inactive: 0.044,inactive: 0.12,inactive: -0.079,inactive: 0.034,inactive: 0.014
SSX5 isoform 2 (UniProt O60225),inactive: -0.111,inactive: -0.059,inactive: 0.091,–,inactive: -0.035
